The match of structure and compound is tentative. Bounds are passed on as bounds.

Chains of the proteins cited; added tags and fusions are not shown.
UniProt P35372, whole entry: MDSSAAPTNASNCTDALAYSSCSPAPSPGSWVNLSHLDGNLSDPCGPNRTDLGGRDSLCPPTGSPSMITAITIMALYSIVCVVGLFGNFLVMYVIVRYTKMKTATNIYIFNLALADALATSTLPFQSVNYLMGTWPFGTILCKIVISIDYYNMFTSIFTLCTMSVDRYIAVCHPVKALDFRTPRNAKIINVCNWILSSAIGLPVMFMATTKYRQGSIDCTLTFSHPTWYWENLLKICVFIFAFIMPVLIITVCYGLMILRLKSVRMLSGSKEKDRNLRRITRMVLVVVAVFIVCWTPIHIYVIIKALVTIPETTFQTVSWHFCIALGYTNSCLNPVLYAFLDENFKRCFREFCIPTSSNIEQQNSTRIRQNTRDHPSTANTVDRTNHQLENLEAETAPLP
UniProt P41145, whole entry: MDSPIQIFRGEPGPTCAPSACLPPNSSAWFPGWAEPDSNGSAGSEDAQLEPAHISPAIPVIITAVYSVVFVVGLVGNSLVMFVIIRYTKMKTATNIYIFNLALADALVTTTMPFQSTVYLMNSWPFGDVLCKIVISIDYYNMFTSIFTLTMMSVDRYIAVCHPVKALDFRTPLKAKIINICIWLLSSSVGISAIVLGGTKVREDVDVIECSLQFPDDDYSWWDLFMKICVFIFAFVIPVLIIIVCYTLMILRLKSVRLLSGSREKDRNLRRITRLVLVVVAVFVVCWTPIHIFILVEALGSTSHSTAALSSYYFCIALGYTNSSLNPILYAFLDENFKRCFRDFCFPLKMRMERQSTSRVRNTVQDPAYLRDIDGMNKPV

For test [1], the target named is mu opioid receptor (MOR) (Homo sapiens, UniProt P35372). In words: OPRMu1 Discover X β-arrestin Assay, antagonist mode (U2OS cells, DAMGO EC80 challenge). It is filed as cell-based. The settings on record: read-out: MOR IC50.
The target in test [2] is kappa opioid receptor (KOR) (Homo sapiens, UniProt P41145). The experiment in a line: OPRKappa 1 Tango B-Arrestin Assay, antagonist mode (Tango OPRK1-bla U2OS cells, U50488 EC80 challenge). As to conditions: for Selectivity (MOR/KOR): Kappa selectivity, MOR IC50 / KOR IC50; for IC50: read-out: KOR IC50, antagonist mode, Tango OPRK1-bla U2OS cells, 6 nM U50488 challenge. It counts as cell-based.

As usually defined, the IC50 is the midpoint of a concentration-inhibition curve. For `CCc1cc(-c2ccn(C)n2)c2nc(N3CCNC[C@H]3C)c(-c3ccn(C)n3)c(C)c2c1`, the IC50 in test [1] is more than 1000 nM. In test [2], the “Selectivity (MOR/KOR)” value was “++ (between 10- and 100-fold selectivity)”; the IC50 is more than 100 nM.
Consider `CCc1cc(F)c2nc(N3CCN(C4CCOCC4)C[C@H]3C)c(-c3nc(C)no3)c(C)c2c1`, for which the IC50 in test [1] was more than 1000 nM. Moreover, in test [2], the “Selectivity (MOR/KOR)” value is recorded as “+++ (between 100- to 1000-fold selective)” and the IC50 was less than 1 nM.

Values taken from US20260115185A1, “QUINOLINE DERIVATIVES WHICH ACT AS KAPPA-OPIOID RECEPTOR ANTAGONISTS” (The Scripps Research Institute, priority 2023, published 2026).
